We go through two substances from article PMC9457825.

Protein sequences, listed by entry. Tags and fused reporters are not part of them. Residues count along the entry.
UniProt P01027, residues 671-748: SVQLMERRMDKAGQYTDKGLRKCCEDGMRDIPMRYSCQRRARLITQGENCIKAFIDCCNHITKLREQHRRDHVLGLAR
UniProt Q91VN6: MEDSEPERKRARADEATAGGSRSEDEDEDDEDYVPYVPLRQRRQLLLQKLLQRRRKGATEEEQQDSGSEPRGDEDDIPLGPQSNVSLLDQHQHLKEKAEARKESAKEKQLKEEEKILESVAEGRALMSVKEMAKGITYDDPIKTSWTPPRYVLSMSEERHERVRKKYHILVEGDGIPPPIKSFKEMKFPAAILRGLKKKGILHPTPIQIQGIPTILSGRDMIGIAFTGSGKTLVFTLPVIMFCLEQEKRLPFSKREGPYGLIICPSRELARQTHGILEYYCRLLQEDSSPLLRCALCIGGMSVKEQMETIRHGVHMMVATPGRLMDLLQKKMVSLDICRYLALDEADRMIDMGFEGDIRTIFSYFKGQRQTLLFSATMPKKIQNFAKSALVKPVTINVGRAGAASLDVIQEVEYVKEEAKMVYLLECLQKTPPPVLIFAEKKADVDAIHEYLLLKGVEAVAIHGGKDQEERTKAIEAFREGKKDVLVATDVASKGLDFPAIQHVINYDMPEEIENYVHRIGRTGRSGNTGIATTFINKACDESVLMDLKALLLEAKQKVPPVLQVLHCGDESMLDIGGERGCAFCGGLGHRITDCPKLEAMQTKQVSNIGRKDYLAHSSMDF
UniProt P09103, residues 20-509: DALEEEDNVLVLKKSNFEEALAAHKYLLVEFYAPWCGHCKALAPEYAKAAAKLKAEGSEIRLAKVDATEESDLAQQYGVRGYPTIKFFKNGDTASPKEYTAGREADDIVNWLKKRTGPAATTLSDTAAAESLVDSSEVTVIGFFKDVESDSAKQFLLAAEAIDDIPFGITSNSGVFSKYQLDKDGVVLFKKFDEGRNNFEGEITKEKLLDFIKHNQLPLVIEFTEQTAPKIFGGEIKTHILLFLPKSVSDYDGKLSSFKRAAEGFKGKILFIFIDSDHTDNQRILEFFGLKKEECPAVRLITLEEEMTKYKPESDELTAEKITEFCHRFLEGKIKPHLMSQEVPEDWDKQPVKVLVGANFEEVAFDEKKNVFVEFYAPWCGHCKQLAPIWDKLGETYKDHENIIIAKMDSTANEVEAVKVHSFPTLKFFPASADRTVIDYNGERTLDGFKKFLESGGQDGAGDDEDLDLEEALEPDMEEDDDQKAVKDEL

The target in the assay is GST-C3a (UniProt P01027). The assay is described as follows: affinity purification with mass spectrometry; GST pull-down: resin reacted first with the bacterial lysate holding GST-C3a, then with membrane proteins of bEnd3 cells; eluted with 20 mM reduced glutathione; LC-MS (Q Exactive); controls: GST with membrane proteins, GST-C3a with lysis buffer; only the target purified.

No constants are given. Whether binding was seen depends on the method and setting. Binding seen in cells or lysates may run through a third protein. Here binding means that the protein was enriched with, or labelled near, the bait; the list need not be complete.

For Ddx41 (from UniProt Q91VN6 1-622), the binding result is listed as “binds”.

For P4hb (from UniProt P09103 20-509), the binding entry is “binds”.
